Measurements reported in PMC8861638, “Human iPSC-derived renal organoids engineered to report oxidative stress can predict drug-induced toxicity” (iScience, 2022).

Test system: hiPSC-derived flat renal organoids
Assay: RNA-seq of wild-type hiPSC-derived flat renal organoids treated with gentamicin for 24 h
Format: cell-based, human
Description: Although some transporters were more strongly expressed in the 3D organoids, the presence of Megalin and Cubulin in the flat organoids, combined with their increased suitability for high-throughput analyses, led us to adopt this form of organoid to identify a potential reporter for toxic insults in renal organoids. hiPSCs were differentiated into flat renal organoids, and their renal identity was verified by confirming expression of common renal markers (as described above and in the Methods section). We treated these flat renal organoids for 24 h with the known nephrotoxicant, gentamicin ([Regec et al., 1986], [1989]; [El Mouedden et al., 2000]), at 1 or 4 mg/mL, leaving some as vehicle-only controls (3 separate organoids per condition). Gentamicin was chosen based on the presence of Megalin and Cubulin in these organoids because they are the main endocytic receptors involved in gentamicin uptake into proximal tubule cells ([Schmitz et al., 2002]) and would be expected to be necessary for a realistic toxic response. The transcriptomes of renal organoids in these three conditions were compared using RNA-seq analyses.
In contrast, treatment with 4 mg/mL gentamicin caused the expression of 2,221 genes to increase and that of 1770 to decrease. Among the transcripts showing increased expression was KIM-1 (log fold-change: 1.67; FDR-corrected p = 0.03), a biomarker commonly associated with renal tubular necrosis (Table S1).
RNA-seq, and trimming, filtering and normalization of raw data, was performed by Edinburgh Genomics. 1 μg of total RNA/sample was used for sequencing library preparation using an Illumina TruSeq stranded mRNA kit. Sequencing was performed using a Novaseq S1 50 Paired-end run to produce 50–64 million read-pairs per sample. Reads were trimmed using Cutadapt and were aligned to the Homo sapiens reference genome (GRCh38; from Ensembl) using STAR. Standard GTF-format annotation for the reference genome (annotation version 84) was used. Reads were assigned to features of type ‘exon’ in the input annotation grouped by gene_id in the reference genome using Feature Counts. The raw count data were filtered to remove very low-expressed genes (genes consisting predominantly of near-zero counts), filtering was performed on counts per million to avoid artefacts due to library depth. Reads were normalised using the weighted trimmed mean of M-values method. Differential analysis (comparing the low-treated group to the control group, or the high-treated group to the control group) was carried out using edgeR4. Fold-changes were estimated as per the default behavior of edgeR, to avoid artefacts which occur with empirical calculation. Statistical assessment of differential expression was carried out with the quasi-likelihood (QL) F-test.
We performed a PANTHER Over-representation Test using the annotation version GO Ontology database. For the functional classification, the same list of genes was used in a Panther functional classification analysis selecting the ontology Biological Process and the ontology Molecular Function.

CNC(C)C1CCC(N)C(OC2C(N)CC(N)C(OC3OCC(C)(O)C(NC)C3O)C2O)O1 (stereo not drawn) [Gentamicin]
Number of genes with decreased expression (4 mg/mL): 1770
Number of genes with increased expression (4 mg/mL): 2,221
Log2FC ATF3 (4 mg/mL vs control): 3.08
Log2FC FOS (4 mg/mL vs control): 3.871
Log2FC HRK (4 mg/mL vs control): 3.328
Log2FC HSPA1A (4 mg/mL vs control): 2.663
Log2FC HSPA1B (4 mg/mL vs control): 2.887
Log2FC HSPA6 (4 mg/mL vs control): 5.206
Log2FC JDP2 (4 mg/mL vs control): 1.882
Log2FC JUN (4 mg/mL vs control): 1.373
Log2FC LTA (4 mg/mL vs control): 3.873
log-fold increase TRIB3 (4 mg/mL vs control): 2.14
